PubChem BioAssay AID1671195 – Yale University – 2021
The deposit covers about 22,000 reagents; this is a part drawn at random. About 1,510 of all reagents (6.9%) count as active. 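Active includes knockdowns raising or lowering LDL uptake; positive z-scores mean more uptake, negative mean less.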

- Assay: 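Knockdowns that increase or decrease uptake of fluorescent LDL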 (primary screen)
- System: human Huh7 hepatoma cells
- Knock-down reagent: siRNA pool against human genes, 18 nM
- Timing: about 2 to 2.5 days of knockdown, then 8 h LDL uptake
- Conditions: DiI-labelled LDL at 30 µg/ml for 8 h, in lipoprotein-deficient serum medium
- Measured: 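Per-cell DiI-LDL intensity by automated imaging; well means scaled to the plate median and given as a robust z-score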
- Scale: robust z-score: higher = more LDL uptake after knockdown
- Rule for the call: 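Active when two or more replicates show a robust z-score above 2 or below -2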

| gene | PubChem SID | robust z-score, replicate 1 | robust z-score, replicate 2 | robust z-score, replicate 3 | activity call |
| --- | --- | --- | --- | --- | --- |
| CDC42EP1 | SID442893634 | 0.267 | -0.379 | 0.195 | inactive |
| FOXJ3 | SID442899537 | -0.635 | -0.753 | -0.509 | inactive |
| SCIMP | SID442890070 | 0.89 | 0.151 | 0.362 | inactive |
| LINC00924 | SID442884644 | 1.74 | 1.74 | 2.71 | inactive |
| MGC70870 | SID442904310 | -1.18 | -1.37 | -2.18 | inactive |
| TFAP2B | SID442902652 | -1.24 | -1.19 | -0.927 | inactive |
| GABRG3 | SID442898651 | -0.327 | -0.633 | -0.61 | inactive |
| IGFBP7-AS1 | SID442883098 | 7.26 | 7.35 | 6.44 | active |
| F2RL1 | SID442896792 | -1.05 | 0.327 | -0.215 | inactive |
| RAI2 | SID442902021 | -1.11 | -2 | 0.11 | inactive |
| IL33R | SID442889394 | 0.939 | 0.178 | 0.583 | inactive |
| LOC399920 (retired record) | SID442903818 | -0.937 | -1.52 | -1.74 | inactive |
| SPSB1 | SID442884401 | -1.85 | -2.25 | -2.09 | active |
| PIP5K1B | SID442891387 | 0.877 | 0.0934 | -0.0916 | inactive |
| PLA2G4F | SID442899605 | -0.607 | -0.72 | -0.601 | inactive |
| S1PR3 | SID442892494 | 0.208 | 0.254 | 0.0196 | inactive |
| S1PR3 | SID442897167 | -0.61 | -0.131 | -0.322 | inactive |
| ZBTB7C | SID442893477 | 0.189 | -0.103 | 0.0498 | inactive |
| PSAP | SID442889820 | 0.19 | 1.22 | 0.108 | inactive |
| SH3GLB2 | SID442885362 | 0.261 | 1.94 | 2.44 | inactive |
| SDHAP1 | SID442889522 | 0.694 | 0.649 | 0.295 | inactive |
| BLOC1S2 | SID442895343 | 0.0113 | -0.203 | -0.29 | inactive |
| NSUN5 | SID442884792 | 1.47 | 0.12 | 4.08 | inactive |
| PEX2 | SID442887910 | 0.922 | 0.717 | 0.816 | inactive |
| CFAP157 | SID442889348 | 0.512 | 0.517 | 0.69 | inactive |
| CCNY | SID442897473 | -0.042 | -0.547 | -0.58 | inactive |
| TLCD1 | SID442894460 | -0.682 | 0.0699 | 0.414 | inactive |
| CLIC4P3 | SID442891390 | 0.425 | -0.0589 | 0.511 | inactive |
| LOC390880 (retired record) | SID442903927 | -1.39 | -1.35 | -1.56 | inactive |
| HS3ST3A1 | SID442884026 | 1.93 | 2.2 | 2.03 | active |
| TMEM145 | SID442903679 | -1.49 | -1.46 | -1.12 | inactive |
| RAB37 | SID442899750 | -0.277 | -0.759 | -0.957 | inactive |
| IQCH | SID442887284 | 0.325 | 1.49 | 1.03 | inactive |
| LOC400600 (retired record) | SID442898643 | -0.513 | -0.386 | -0.669 | inactive |
| MOGAT3 | SID442900569 | -2.2 | -0.316 | 0.185 | inactive |
| CREG2 | SID442897296 | -0.324 | 0.052 | -0.838 | inactive |

The list goes on, starting with the last 9 of the part before.
| gene | PubChem SID | robust z-score, replicate 1 | robust z-score, replicate 2 | robust z-score, replicate 3 | activity call |
| --- | --- | --- | --- | --- | --- |
| CLIC4P3 | SID442891390 | 0.425 | -0.0589 | 0.511 | inactive |
| LOC390880 (retired record) | SID442903927 | -1.39 | -1.35 | -1.56 | inactive |
| HS3ST3A1 | SID442884026 | 1.93 | 2.2 | 2.03 | active |
| TMEM145 | SID442903679 | -1.49 | -1.46 | -1.12 | inactive |
| RAB37 | SID442899750 | -0.277 | -0.759 | -0.957 | inactive |
| IQCH | SID442887284 | 0.325 | 1.49 | 1.03 | inactive |
| LOC400600 (retired record) | SID442898643 | -0.513 | -0.386 | -0.669 | inactive |
| MOGAT3 | SID442900569 | -2.2 | -0.316 | 0.185 | inactive |
| CREG2 | SID442897296 | -0.324 | 0.052 | -0.838 | inactive |
| HEBP1 | SID442891773 | 1.16 | -1.26 | 0.84 | inactive |
| BPIFC | SID442892806 | 0.174 | 0.147 | 0.0434 | inactive |
| SDHAF2 | SID442901011 | -1.53 | 0.144 | -1.13 | inactive |
| BNIP2 | SID442902320 | -1.17 | -1.12 | -0.855 | inactive |
| DPH5 | SID442900613 | -1.02 | -0.92 | -0.405 | inactive |
| SLC7A8 | SID442898321 | -0.492 | -0.592 | -0.372 | inactive |
| FUNDC2 | SID442902696 | -1.31 | -0.803 | -1.27 | inactive |
| OR5P2 | SID442888140 | 1.1 | 0.865 | 0.37 | inactive |
| SARDH | SID442883864 | 2.36 | 2.31 | 2.01 | active |
| SNX6 | SID442893324 | -0.0869 | 0.0786 | 0.197 | inactive |
| F13A1 | SID442889723 | 0.678 | 0.398 | 0.477 | inactive |
| ITLN1 | SID442883272 | 3.64 | 3.47 | 3.47 | active |
| LOC441048 (retired record) | SID442891664 | 1.01 | 0.0352 | -0.266 | inactive |
| COPA | SID442884281 | -1.29 | -1.95 | -2.11 | active |
| TMEM150B | SID442903313 | -1.35 | -1.3 | -1.16 | inactive |
| FAM9B | SID442895155 | -0.389 | 0.113 | -0.144 | inactive |
| LOC128499 (retired record) | SID442894758 | -0.404 | 0.423 | -0.312 | inactive |
| LINC00114 | SID442889741 | 0.207 | 0.502 | 0.839 | inactive |
| VPS18 | SID442883318 | 3.65 | 3.17 | 3.03 | active |
| MYCBP2 | SID442891800 | -1.06 | 0.171 | 1.62 | inactive |
| TPTEP1 | SID442903965 | -2.09 | -0.542 | -1.72 | inactive |
| LOC387981 (retired record) | SID442904298 | -1.57 | -1.36 | -1.78 | inactive |
| SLC9A8 | SID442887138 | 0.743 | 0.608 | 1.58 | inactive |
| AFF2 | SID442892275 | 0.735 | 0.418 | -0.589 | inactive |
| ITLN2 | SID442900812 | -1.38 | -0.278 | -0.773 | inactive |
| COQ4 | SID442897127 | 0.0206 | -1.14 | 0.0724 | inactive |
| LOC441877 (retired record) | SID442888862 | 0.579 | 0.563 | 0.804 | inactive |
| DRP2 | SID442899596 | -0.626 | -0.15 | -1.15 | inactive |
| INSM1 | SID442889746 | 1.27 | -0.136 | 0.412 | inactive |
| EXOC7 | SID442898275 | -0.278 | -0.459 | -0.705 | inactive |
| LINC00614 | SID442890535 | 0.325 | 0.238 | 0.65 | inactive |
| VRK1 | SID442885058 | 0.781 | 1.6 | 2.72 | inactive |
